No constants are given. Whether binding was seen depends on the method and setting. For part of these data: Tags and fused reporters may be left off the sequences shown.
How the values were obtained:
Assay in all cases: SEC; reconstitution: BICD2 and ScaC constructs mixed in a 1:2 molar ratio, 15 min on ice, Superose 6 Increase 3.2/300 in GF150 buffer; fractions on SDS-PAGE; both purified
[1] = target: BICD2, full-length mouse (mouse) (UniProt Q921C5)
[2] = target: BICD2^1–710 (mouse) (UniProt Q921C5)
[3] = target: BICD2^1–400 (mouse) (UniProt Q921C5)

By UniProt entry, the sequences of proteins in these tests, tags left out. Where a name states a change or a piece, a line headed by the entry shows the natural chain unless it says otherwise. Residues count along the entry.
UniProt Q921C5: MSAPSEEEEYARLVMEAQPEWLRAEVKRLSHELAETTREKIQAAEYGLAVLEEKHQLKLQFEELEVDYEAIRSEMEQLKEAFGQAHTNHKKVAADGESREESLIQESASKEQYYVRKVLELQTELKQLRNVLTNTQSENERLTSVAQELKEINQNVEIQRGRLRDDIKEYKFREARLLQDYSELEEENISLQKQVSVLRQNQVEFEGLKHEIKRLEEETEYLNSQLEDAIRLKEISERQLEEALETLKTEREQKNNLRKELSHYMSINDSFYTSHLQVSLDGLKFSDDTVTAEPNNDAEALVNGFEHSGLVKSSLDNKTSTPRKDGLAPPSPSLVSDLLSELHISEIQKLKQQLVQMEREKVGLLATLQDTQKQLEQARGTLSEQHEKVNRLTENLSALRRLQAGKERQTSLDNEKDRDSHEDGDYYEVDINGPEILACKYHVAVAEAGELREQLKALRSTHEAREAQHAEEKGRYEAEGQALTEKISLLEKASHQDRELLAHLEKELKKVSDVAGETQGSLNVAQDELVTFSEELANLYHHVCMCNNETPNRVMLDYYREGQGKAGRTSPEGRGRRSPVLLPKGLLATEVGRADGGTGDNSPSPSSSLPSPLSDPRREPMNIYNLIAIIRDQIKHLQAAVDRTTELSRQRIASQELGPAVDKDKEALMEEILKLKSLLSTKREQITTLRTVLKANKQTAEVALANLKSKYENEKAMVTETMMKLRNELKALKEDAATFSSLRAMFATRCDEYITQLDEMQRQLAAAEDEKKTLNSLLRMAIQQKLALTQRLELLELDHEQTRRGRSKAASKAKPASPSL
BICD2^1–710: residues 1-710 of Q921C5
BICD2^1–400: residues 1-400 of Q921C5

| Molecule | binding [1] | binding [2] | binding [3] |
| --- | --- | --- | --- |
| ScaE passenger domain (residues 49–494) (from UniProt A0A0F3MB98 49-494) (domain or fragment) | no binding |  |  |
| ScaC passenger domain (residues 33–223), C-terminal TEV-6His (domain or fragment, source: SoluBL21 E. coli, purified (Ni-NTA, MonoQ, Superdex 200)) VSNMNLDISNMGEAREGLRKDIAEVSKLLCMLEKSTASSKNLTMRLQQSDTRENEQSNHIRLLITEIESINKENDCLRQKNNQLKIKLHQLKVKLEQALARNTDLQQILPKSQAEMDNLRKQNEQLKIQLQQLQVKLQDLMSLQNKCSNLALINSVKLNYIRDIKYIALANIVIVKALASTFTEKLSKSNR |  | no binding | no binding |

From publication PMC12229497, “The intracellular bacterium Orientia tsutsugamushi uses the autotransporter ScaC to activate BICD adaptors for dynein-based motility” (Nature Communications, 2025)
